From the supplement of paper PMC8728848
This is one part of the list.

Key:
Assay in all cases: glycan array binding signal (z-score within array); higher = stronger binding
Details in all cases: glycan notation: IUPAC condensed, linker removed
[1] = biological target: Fuc(a1-2)Gal(b1-4)[Fuc(a1-3)]GlcNAc
Method in brief: (§1)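 Columns mapping to the same glycan were averaged after glycan names were converted to IUPAC-condensed notation. The data come from 3228 arrays in the Consortium for Functional Glycomics database, limited to those with an available protein sequence. Binding is reported as a within-array Z-score averaged across arrays of one protein sequence and across linkers.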

[2] = biological target: Fuc(a1-2)Gal(b1-4)[Fuc(a1-3)]GlcNAc(b1-2)Man(a1-3)[Fuc(a1-2)Gal(b1-4)[Fuc(a1-3)]GlcNAc(b1-2)Man(a1-6)]Man(b1-4)GlcNAc(b1-4)[Fuc(a1-6)]GlcNAc
Method in brief: as §1

[3] = biological target: Fuc(a1-2)Gal(b1-4)[Fuc(a1-3)]GlcNAc(b1-2)[Fuc(a1-2)Gal(b1-4)[Fuc(a1-3)]GlcNAc(b1-4)]Man(a1-3)[Fuc(a1-2)Gal(b1-4)[Fuc(a1-3)]GlcNAc(b1-2)Man(a1-6)]Man(b1-4)GlcNAc(b1-4)GlcNAc
Method in brief: as §1

[4] = biological target: Fuc(a1-2)Gal(b1-4)[Fuc(a1-3)]GlcNAc(b1-3)Gal(b1-4)[Fuc(a1-3)]GlcNAc
Method in brief: as §1

[5] = biological target: Fuc(a1-2)Gal(b1-4)[Fuc(a1-3)]GlcNAc(b1-3)Gal(b1-4)[Fuc(a1-3)]GlcNAc(b1-3)Gal(b1-4)[Fuc(a1-3)]GlcNAc
Method in brief: as §1

[6] = biological target: Fuc(a1-2)Gal(b1-4)[Fuc(a1-3)]GlcNAc(b1-3)GalNAc
Method in brief: as §1

[7] = biological target: Fuc(a1-2)Gal(b1-4)[Fuc(a1-3)]GlcNAc(b1-3)[Neu5Ac(a2-6)Gal(b1-4)GlcNAc(b1-6)]Gal(b1-4)Glc
Method in brief: as §1

[8] = biological target: Fuc(a1-2)Gal3S(b1-4)GlcNAc
Method in brief: as §1

[9] = biological target: Fuc(a1-2)Gal6S(b1-3)GlcNAc
Method in brief: as §1

[10] = biological target: Fuc(a1-2)Gal6S(b1-3)GlcNAc6S
Method in brief: as §1

[11] = biological target: Fuc(a1-2)Gal6S(b1-4)Glc
Method in brief: as §1

[12] = biological target: Fuc(a1-2)Gal6S(b1-4)Glc6S
Method in brief: as §1

[13] = biological target: Fuc(a1-2)[Gal(a1-3)]Gal
Method in brief: as §1

[14] = biological target: Fuc(a1-2)[Gal(a1-3)]Gal(b1-3)GalNAc
Method in brief: as §1

[15] = biological target: Fuc(a1-2)[Gal(a1-3)]Gal(b1-3)GalNAc(b1-3)Gal(a1-4)Gal(b1-4)Glc
Method in brief: as §1

[16] = biological target: Fuc(a1-2)[Gal(a1-3)]Gal(b1-3)GlcNAc
Method in brief: as §1

[17] = biological target: Fuc(a1-2)[Gal(a1-3)]Gal(b1-3)GlcNAc(b1-2)Man(a1-3)[Fuc(a1-2)[Gal(a1-3)]Gal(b1-3)GlcNAc(b1-2)Man(a1-6)]Man(b1-4)GlcNAc(b1-4)GlcNAc
Method in brief: as §1

[18] = biological target: Fuc(a1-2)[Gal(a1-3)]Gal(b1-3)GlcNAc(b1-2)Man(a1-3)[Fuc(a1-2)[Gal(a1-3)]Gal(b1-3)GlcNAc(b1-2)Man(a1-6)]Man(b1-4)GlcNAc(b1-4)[Fuc(a1-6)]GlcNAc
Method in brief: as §1

[19] = biological target: Fuc(a1-2)[Gal(a1-3)]Gal(b1-3)GlcNAc(b1-3)GalNAc
Method in brief: as §1

[20] = biological target: Fuc(a1-2)[Gal(a1-3)]Gal(b1-3)GlcNAc(b1-6)GalNAc
Method in brief: as §1

[21] = biological target: Fuc(a1-2)[Gal(a1-3)]Gal(b1-4)Glc
Method in brief: as §1

[22] = biological target: Fuc(a1-2)[Gal(a1-3)]Gal(b1-4)GlcNAc
Method in brief: as §1

[23] = biological target: Fuc(a1-2)[Gal(a1-3)]Gal(b1-4)GlcNAc(b1-2)Man
Method in brief: as §1

[24] = biological target: Fuc(a1-2)[Gal(a1-3)]Gal(b1-4)GlcNAc(b1-2)Man(a1-3)[Fuc(a1-2)[Gal(a1-3)]Gal(b1-4)GlcNAc(b1-2)Man(a1-6)]Man(b1-4)GlcNAc(b1-4)GlcNAc
Method in brief: as §1

[25] = biological target: Fuc(a1-2)[Gal(a1-3)]Gal(b1-4)GlcNAc(b1-2)Man(a1-3)[Fuc(a1-2)[Gal(a1-3)]Gal(b1-4)GlcNAc(b1-2)Man(a1-6)]Man(b1-4)GlcNAc(b1-4)[Fuc(a1-6)]GlcNAc
Method in brief: as §1

[26] = biological target: Fuc(a1-2)[Gal(a1-3)]Gal(b1-4)GlcNAc(b1-3)GalNAc
Method in brief: as §1

[27] = biological target: Fuc(a1-2)[Gal(a1-3)]Gal(b1-4)GlcNAc(b1-3)[Fuc(a1-2)[Gal(a1-3)]Gal(b1-4)GlcNAc(b1-6)]GalNAc
Method in brief: as §1

[28] = biological target: Fuc(a1-2)[Gal(a1-3)]Gal(b1-4)GlcNAc(b1-6)GalNAc
Method in brief: as §1

[29] = biological target: Fuc(a1-2)[Gal(a1-3)]Gal(b1-4)[Fuc(a1-3)]Glc
Method in brief: as §1

[30] = biological target: Fuc(a1-2)[Gal(a1-3)]Gal(b1-4)[Fuc(a1-3)]GlcNAc
Method in brief: as §1

[31] = biological target: Fuc(a1-2)[Gal(a1-3)]Gal(b1-4)[Fuc(a1-3)]GlcNAc(b1-3)GalNAc
Method in brief: as §1

[32] = biological target: Fuc(a1-2)[Gal(a1-4)]Gal(b1-4)GlcNAc
Method in brief: as §1

[33] = biological target: Fuc(a1-2)[GalNAc(a1-3)]Gal
Method in brief: as §1

[34] = biological target: Fuc(a1-2)[GalNAc(a1-3)]Gal(b1-3)GalNAc(a1-3)[Fuc(a1-2)]Gal(b1-4)GlcNAc
Method in brief: as §1

[35] = biological target: Fuc(a1-2)[GalNAc(a1-3)]Gal(b1-3)GalNAc(b1-3)Gal(a1-4)Gal(b1-4)Glc
Method in brief: as §1

[36] = biological target: Fuc(a1-2)[GalNAc(a1-3)]Gal(b1-3)GlcNAc
Method in brief: as §1

[37] = biological target: Fuc(a1-2)[GalNAc(a1-3)]Gal(b1-3)GlcNAc(b1-2)Man(a1-3)[Fuc(a1-2)[GalNAc(a1-3)]Gal(b1-3)GlcNAc(b1-2)Man(a1-6)]Man(b1-4)GlcNAc(b1-4)GlcNAc
Method in brief: as §1

[38] = biological target: Fuc(a1-2)[GalNAc(a1-3)]Gal(b1-3)GlcNAc(b1-2)Man(a1-3)[Fuc(a1-2)[GalNAc(a1-3)]Gal(b1-3)GlcNAc(b1-2)Man(a1-6)]Man(b1-4)GlcNAc(b1-4)[Fuc(a1-6)]GlcNAc
Method in brief: as §1

B1: ERGIC1-EDTA (Homo sapiens), Q969X5 (protein)
chain: MKFLVNVALVFMVVYISYIYAAAHMHHHHHHDYDIPTTENLYFQGSEVVNELYVDDPDKDSGGKIDVSLNISLPNLHCELVGLDIQDEMGRHEVGHIDNSMKIPLNNGAGCRFEGQFSINKVPGNFHVSTHSATAQPQNPDMTHVIHKLSFGDTLQVQNIHGAFNALGGADRLTSNPLASHDYILKIVPTVYEDKSGKQRYSYQYTVANKEYVAYSHTGRIIPAIWFRYDLSPITVKYTE
How did the “glycan array binding signal (z-score)” value [1] turn out when B1 was run?
Its value is -0.181.

What about the “glycan array binding signal (z-score)” value [2] of the same binder?
The value was -0.009.

And the “glycan array binding signal (z-score)” value [3]?
The value was 1.07.

And the “glycan array binding signal (z-score)” value [4]?
Its value is 0.599.

What about the “glycan array binding signal (z-score)” value [5] of the same binder?
The value was 0.112.

And the “glycan array binding signal (z-score)” value [6]?
Its value is 0.086.

And the “glycan array binding signal (z-score)” value [7]?
Its value is -0.254.

And the “glycan array binding signal (z-score)” value [8]?
The value was -0.898.

And the “glycan array binding signal (z-score)” value [9]?
The value was -0.66.

And the “glycan array binding signal (z-score)” value [10]?
Its value is 0.311.

And the “glycan array binding signal (z-score)” value [11]?
Its value is 1.11.

And the “glycan array binding signal (z-score)” value [12]?
Its value is -0.133.

What about the “glycan array binding signal (z-score)” value [13] of the same binder?
The value was -0.808.

What about the “glycan array binding signal (z-score)” value [14] of the same binder?
Its value is -0.427.

And the “glycan array binding signal (z-score)” value [15]?
The value was -1.14.

And the “glycan array binding signal (z-score)” value [16]?
The value was -0.706.

What about the “glycan array binding signal (z-score)” value [17] of the same binder?
The value was -0.168.

What about the “glycan array binding signal (z-score)” value [18] of the same binder?
Its value is 0.778.

What about the “glycan array binding signal (z-score)” value [19] of the same binder?
The value was 0.708.

What about the “glycan array binding signal (z-score)” value [20] of the same binder?
The value was 0.046.

What about the “glycan array binding signal (z-score)” value [21] of the same binder?
The value was 0.37.

What about the “glycan array binding signal (z-score)” value [22] of the same binder?
Its value is -0.089.

What about the “glycan array binding signal (z-score)” value [23] of the same binder?
Its value is 0.546.

What about the “glycan array binding signal (z-score)” value [24] of the same binder?
The value was 0.131.

And the “glycan array binding signal (z-score)” value [25]?
Its value is 0.154.

What about the “glycan array binding signal (z-score)” value [26] of the same binder?
The value was -0.424.

What about the “glycan array binding signal (z-score)” value [27] of the same binder?
Its value is 0.043.

And the “glycan array binding signal (z-score)” value [28]?
The value was 0.75.

What about the “glycan array binding signal (z-score)” value [29] of the same binder?
The value was 0.591.

What about the “glycan array binding signal (z-score)” value [30] of the same binder?
The value was -0.221.

What about the “glycan array binding signal (z-score)” value [31] of the same binder?
Its value is 0.81.

And the “glycan array binding signal (z-score)” value [32]?
The value was 0.441.

And the “glycan array binding signal (z-score)” value [33]?
Its value is -0.157.

And the “glycan array binding signal (z-score)” value [34]?
Its value is -1.34.

And the “glycan array binding signal (z-score)” value [35]?
The value was 0.746.

What about the “glycan array binding signal (z-score)” value [36] of the same binder?
The value was 0.499.

And the “glycan array binding signal (z-score)” value [37]?
The value was -1.8.

And the “glycan array binding signal (z-score)” value [38]?
Its value is 0.638.
